# In PubChem BioAssay AID504834 (National Center for Advancing Translational Sciences (NCATS), 2011):
# Where “and” joins values, the source holds several entries; their conditions need not be identical. Equal values may be shown once. Screen size: about 320,000 compounds; about 22,000 (6.9%) were called active. The shares of active, inactive and inconclusive entries below differ from those in the screen. Calls come from the whole dose curve; as a rule, active = well fitted inhibition curve with a large enough effect; inconclusive = small, poorly fitted or top-dose-only effect, or another doubt; inactive = no such curve, though single readings can be large or run the other way. Potencies beside an inconclusive call are fits to weak or partial responses and may not hold up.
# Assay: Primary qHTS for delayed death inhibitors of the malarial parasite plastid, 96 hour incubation
# Conditions: P. falciparum luciferase reporter growth; series mostly up to 28.7 µM; activity change, negative = inhibition: at the top concentration
# Summary of the method: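 Compounds incubated with erythrocytes infected by luciferase-expressing P. falciparum (2% hematocrit, 0.05% parasitemia final) for 96 hours, 37 C in 5% CO2. Growth inhibition scored as decreased luciferase luminescence.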
# % is set by controls: 0 for no effect and ±100 for the full control effect; potency is the fitted concentration of half-maximal effect.
SMILES,"activity change, negative = inhibition",Potency
CCc1nc(C#N)c(N2CCOCC2)o1,inactive: 9.42%,–
CN(CC(=O)Nc1ccc(Cl)cc1)C(=O)c1cccc(S(=O)(=O)NCc2ccccc2)c1,inactive: 1.54%,–
Cc1ccc(N/C=C(/C#N)c2ccsc2)cc1C,inactive: 263%,–
O=C(c1cn2ccccc2n1)N1CCCC(Nc2ccc(F)c(F)c2)C1 (configuration not stated),–,"inconclusive: 13.1 µM [inhibitor, single point]"
Oc1c(Br)cc(Br)cc1CNc1cccc2cccnc12,–,"inconclusive: 18.5 µM [inhibitor, single point]"
Cc1ccccc1CN(C)CC(=O)Nc1ccccc1Oc1ccccc1,–,"inconclusive: 18.5 µM [inhibitor, single point]"
S=C1NCN(Cc2ccco2)CN1,inactive: 60.7%,–
CCOC(=O)C1CCCN(C(=O)c2cccc(S(=O)(=O)N(Cc3ccccc3)c3ccccc3OC)c2)C1 (configuration not stated),–,"inconclusive: 2.94 µM [inhibitor, full curve]"
CC(C)(C)c1cc(C(=O)CCN2CCOCC2)cc(C(C)(C)C)c1O,–,"inconclusive: 10.4 µM [inhibitor, partial curve]"
O=[N+]([O-])c1ccc(C2CCCC/C2=N\OCc2cccc(F)c2)c([N+](=O)[O-])c1 (configuration not stated),–,"inconclusive: 18.5 µM [inhibitor, single point]"
Cc1ccc(C(c2sc3nc(C)nn3c2O)N2CC(C)OC(C)C2)cc1 (configuration not stated),–,"inconclusive: 0.0147 µM [inhibitor, full curve, poor fit]"
CCOC(=O)C1=C(COC(=O)C2CC(=O)N(c3ccccc3F)C2)NC(=O)NC1C (configuration not stated),–,"inconclusive: 10.4 µM [inhibitor, single point]"
Nc1nc(Cl)c2ncn(C3OC(CO)C(O)C3O)c2n1 (configuration not stated),–,"inconclusive: 16.9 µM [inhibitor, single point]"
COc1ccc(CCNC(=O)CNCC2CCCCC2)cc1OC,inactive: -27.6%,–
CC1CC(=O)Nc2ccccc2N1S(=O)(=O)c1ccc(Cl)cc1 (configuration not stated),inactive: 6.22%,–
CC(C)[C@H]1C(=O)O[C@@H]2CCN3CC=C(COC(=O)[C@](C)(O)[C@]1(C)O)[C@H]23,–,"inconclusive: 9.28 µM [inhibitor, single point]"
Cc1ccc(NC(=O)C2=C(C(=O)O)CCCC2)cc1Br,–,"inconclusive: 18.5 µM [inhibitor, single point]"
NC(=O)SCC(=O)Nc1cccc(Cl)c1,–,"inconclusive: 11.7 µM [inhibitor, single point]"
CCOC(=O)c1ccc(N2CCOCC2)c(NC(=O)c2ccc3c(c2)OCO3)c1,–,"inconclusive: 18.5 µM [inhibitor, single point]"
Cc1ccc(S(=O)(=O)NCCN2CCN(S(=O)(=O)c3ccccc3Cl)CC2)cc1,–,"inconclusive: 18.5 µM [inhibitor, single point]"
CCOc1cc(/C=C(\C#N)C(N)=O)ccc1OS(=O)(=O)c1ccccc1,inactive: -11.1%,–
Cc1cccc(N2CCN(C(=O)NC(C)c3ccc(F)c(F)c3)CC2)c1C (configuration not stated),–,active: 11.7 µM
O=C(CSc1nnnn1C1CCCCC1)Nc1ccccc1N1CCOCC1,inactive: -22.9%,–
C=CCN1C=C/C(=C\C=C(C#N)C#N)c2ccccc21,–,"inconclusive: 20.8 µM [inhibitor, partial curve, poor fit]"

# At a glance, four of the compounds above.
SMILES,"activity change, negative = inhibition",Potency
CCOC(=O)C1CCCN(C(=O)c2cccc(S(=O)(=O)N(Cc3ccccc3)c3ccccc3OC)c2)C1 (configuration not stated),–,"inconclusive: 2.94 µM [inhibitor, full curve]"
CC(C)(C)c1cc(C(=O)CCN2CCOCC2)cc(C(C)(C)C)c1O,–,"inconclusive: 10.4 µM [inhibitor, partial curve]"
O=[N+]([O-])c1ccc(C2CCCC/C2=N\OCc2cccc(F)c2)c([N+](=O)[O-])c1 (configuration not stated),–,"inconclusive: 18.5 µM [inhibitor, single point]"
Cc1ccc(C(c2sc3nc(C)nn3c2O)N2CC(C)OC(C)C2)cc1 (configuration not stated),–,"inconclusive: 0.0147 µM [inhibitor, full curve, poor fit]"

# Following part

SMILES,"activity change, negative = inhibition",Potency
COc1cc(OC)cc(-c2oc(=O)c3cc(OC)c(OC)cc3c2/C=C/c2ccc(F)cc2)c1,–,"inconclusive: 16.5 µM [inhibitor, single point]"
CCC(C(=O)NCc1ccc(C)cc1)c1ccccc1 (configuration not stated),–,active: 14.7 µM
O=C(N/N=C/c1cnc(N2CCCCC2)s1)c1ccc(Cl)cc1,–,"inconclusive: 4.65 µM [inhibitor, partial curve, poor fit]"
C/C(CC1CC(COCC(C)C)OC1=O)=N\Nc1nc(-c2ccccc2)cs1 (configuration not stated),–,"inconclusive: 11.7 µM [inhibitor, single point]"
Cc1nc(NCCC(C)C)c2nnn(Cc3ccccc3)c2n1,inactive: 47%,–
COc1ccc(CSc2nc3ccccc3c(=O)n2CCCN2CCOCC2)cc1F,–,active: 8.28 µM
Cn1c(N)c(C(=O)CSc2n[nH]c(N)n2)c(=O)n(C)c1=O,inactive: 15.2%,–
CCCCCCCCC(=O)N/N=C(\C)c1cccnc1,inactive: 10.6%,–
O=C(Nc1ccc(-c2cn3c(n2)SCC3)cc1)c1ccc2ccccc2n1,–,"inconclusive: 14.7 µM [inhibitor, single point]"
FC(F)(F)c1cnc(NNC(=S)Nc2ccccc2Cl)c(Cl)c1,–,"inconclusive: 18.5 µM [inhibitor, single point]"
O=c1cc(-c2cccs2)oc2ccc(Cl)cc12,inactive: 0%,–
CCC1(C)NC(=O)N(CC(=O)N2CCN(c3cccc(Cl)c3)CC2)C1=O (configuration not stated),–,"inconclusive: 18.5 µM [inhibitor, single point]"
O=[N+]([O-])c1ccc(OCCn2cncn2)cc1,inactive: 32.3%,–
O=C(CCN1CCN(Cc2ccccc2)CC1)Nc1cccc(Cl)c1,–,"inconclusive: 8.28 µM [inhibitor, partial curve, poor fit]"
NC(=Nc1ccccc1)Nc1ccccc1,–,"inactive and inconclusive: 6.75 µM [inhibitor, partial curve]"
Cc1ccc(NC(=O)CSc2nn(-c3ccccc3)c(=S)s2)cc1S(=O)(=O)N(C)C,–,active: 3.29 µM
O=C(CN1CCN(c2cccc(C(F)(F)F)c2)CC1)NCc1ccccc1,inactive: -4.08%,–
CCCCCCC(=O)N1C/C=C\C(c2ccc(OC)cc2)N(Cc2ccc(F)cc2)C(=O)[C@H]1Cc1ccccc1 (some centres not stated),–,active: 7.38 µM
O=C(c1cc2ccccc2cc1O)N1CCN(c2ccccn2)CC1,–,"inconclusive: 10.4 µM [inhibitor, single point]"
COc1ccc(C2OC(=O)CC2C(=O)NC2CCCC(C)C2C)cc1OC (configuration not stated),–,"inconclusive: 10.4 µM [inhibitor, partial curve, poor fit]"
CN1CCN(C(=O)c2cc3cc(Cl)ccc3[nH]2)CC1,–,active: 10.4 µM
CCc1ccc(OCC(=O)N2CCN(CC(=O)Nc3ccccc3Cl)CC2)cc1,–,"inconclusive: 9.28 µM [inhibitor, single point]"
CN(C)c1oc(COc2ccccc2F)nc1C#N,inactive: 48.6%,–
